Test results from PubChem BioAssay AID192 (DTP/NCI, 2004).
The list is a part of this screen's results and no random one: it gathers some chemical classes. Not every dose and run of a compound is shown. T/C gives the treated animals as a percentage of the vehicle group. Some entries give survivors of the animals treated and no T/C: the source holds a T/C of zero for them, seemingly a mark for toxic or unscored doses. Some doses without a T/C left all or most animals alive at the check, yet need not have been tolerated: the source hardly ever lists a survival T/C far under the control, and the zero likely stands for such cases as well. Survivors were counted at the toxicity check, usually on the fifth day, unless a day is given; later deaths do not show. Schedules are NCI's codes, read here as Q, the interval in days (D) or hours (H), X, the number of doses. For survival time, this PubChem deposit counts one and a half times the control or more as active, and values a quarter to a half above the control carry no call in these data; other NCI protocols may use other cut-offs. Some doses were run more than once; the values are given in rising order. Some T/C values carry the count of animals alive at the toxicity check (mostly the fifth day); without a count or a note in brackets, all were alive then.

System: BDF1 mice, B16 melanoma ip, median survival T/C
Test: NCI In Vivo Anticancer Drug Screen. Data for tumor model B16 Melanoma (intraperitoneal) in B6D2F1 (BDF1) mice
Conditions: T/C endpoint: median survival time, higher T/C = longer survival
Summary of the method: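 In this screen, activity was judged from survival or tumor size in treated versus vehicle-treated tumor-bearing mice, reported as T/C.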

[1] = dose: 200.0 mg/kg/injection, schedule: Q01DX009 (ip), vehicle: saline with Tween-80
[2] = dose: 6.25 mg/kg/injection, schedule: Q01DX009 (ip), vehicle: Klucel (hydroxypropylcellulose) (HPC)
[3] = dose: 12.5 mg/kg/injection, schedule: Q01DX009 (ip), vehicle: Klucel (hydroxypropylcellulose) (HPC)
[4] = dose: 25.0 mg/kg/injection, schedule: Q01DX009 (ip), vehicle: Klucel (hydroxypropylcellulose) (HPC)
[5] = dose: 50.0 mg/kg/injection, schedule: Q01DX009 (ip), vehicle: Klucel (hydroxypropylcellulose) (HPC)
[6] = dose: 100.0 mg/kg/injection, schedule: Q01DX009 (ip), vehicle: Klucel (hydroxypropylcellulose) (HPC)
[7] = dose: 200.0 mg/kg/injection, schedule: Q01DX009 (ip), vehicle: Klucel (hydroxypropylcellulose) (HPC)
[8] = dose: 3.12 mg/kg/injection, schedule: Q01DX009 (ip), vehicle: Klucel (hydroxypropylcellulose) (HPC)
[9] = dose: 12.5 mg/kg/injection, schedule: Q01DX009 (ip), vehicle: saline
[10] = dose: 25.0 mg/kg/injection, schedule: Q01DX009 (ip), vehicle: saline
[11] = dose: 50.0 mg/kg/injection, schedule: Q01DX009 (ip), vehicle: saline
[12] = dose: 100.0 mg/kg/injection, schedule: Q01DX009 (ip), vehicle: saline
[13] = dose: 200.0 mg/kg/injection, schedule: Q01DX009 (ip), vehicle: saline
[14] = dose: 400.0 mg/kg/injection, schedule: Q01DX009 (ip), vehicle: saline
[15] = dose: 20.0 mg/kg/injection, schedule: Q01DX009 (ip), vehicle: saline

## COC(=O)c1ccc(N2CCOP2(=O)Cl)cc1O (centres undefined)
dose: 100.0 mg/kg/injection, schedule: Q01DX009 (ip), vehicle: saline with Tween-80
  T/C: 97 % of control [9 of 10 alive]
[1]
  survivor count: 8 of 10
dose: 400.0 mg/kg/injection, schedule: Q01DX009 (ip), vehicle: saline with Tween-80
  survivor count: 0 of 10

## CC(=O)OC(SC(OC(C)=O)C(Cl)(Cl)Cl)C(Cl)(Cl)Cl (centres undefined)
[2]
  T/C: 95 % of control [9 of 10 alive]
[3]
  T/C: 101 % of control
dose: 21.75 mg/kg/injection, schedule: Q01DX009 (ip), vehicle: Klucel (hydroxypropylcellulose) (HPC)
  T/C: 96 % of control
[4]
  T/C: 88 % of control
dose: 43.5 mg/kg/injection, schedule: Q01DX009 (ip), vehicle: Klucel (hydroxypropylcellulose) (HPC)
  T/C: 98 % of control
[5]
  T/C: 89 % of control
dose: 87.0 mg/kg/injection, schedule: Q01DX009 (ip), vehicle: Klucel (hydroxypropylcellulose) (HPC)
  T/C: 97 % of control
dose: 87.0 mg/kg/injection, schedule: Q01DX009 (ip), vehicle: saline with Tween-80
  survivor count: 10 of 10
[6]
  T/C: 87 % of control
dose: 133.0 mg/kg/injection, schedule: Q01DX009 (ip), vehicle: saline with Tween-80
  survivor count: 10 of 10
[7]
  survivor count: 10 of 10
[1]
  survivor count: 9 of 10
dose: 300.0 mg/kg/injection, schedule: Q01DX009 (ip), vehicle: saline with Tween-80
  survivor count: 9 of 10

## ClCCNc1nc2ccccc2c2ccccc12
dose: 10.0 mg/kg/injection, schedule: Q01DX009 (ip), vehicle: Klucel (hydroxypropylcellulose) (HPC)
  T/C: 106 % of control
dose: 20.0 mg/kg/injection, schedule: Q01DX009 (ip), vehicle: Klucel (hydroxypropylcellulose) (HPC)
  T/C: 106 % of control
dose: 40.0 mg/kg/injection, schedule: Q01DX009 (ip), vehicle: Klucel (hydroxypropylcellulose) (HPC)
  T/C: 110 % of control
dose: 80.0 mg/kg/injection, schedule: Q01DX009 (ip), vehicle: Klucel (hydroxypropylcellulose) (HPC)
  survivor count: 1 of 6

## O=[N+]([O-])c1cccc(Oc2ccc([N+](=O)[O-])cc2[N+](=O)[O-])c1
[5]
  T/C: 116 % of control
[6]
  T/C: 110 % of control
[7]
  T/C: 104 % of control [9 of 10 alive]

## CCN(CC)[P+](c1ccc(OC)cc1OC)(N(CC)CC)N(CC)CC.F[P-](F)(F)(F)(F)F
[8]
  T/C: 109 % of control
[2]
  T/C: 113 % of control
[3]
  T/C: 105 % of control
[4]
  survivor count: 9 of 10
[5]
  survivor count: 5 of 10

## CCCCO[P+](=O)OCCCC
[9]
  T/C: 105 % of control
[10]
  T/C: 105 % of control
dose: 25.0 mg/kg/injection, schedule: Q04DX003 (ip), vehicle: saline
  T/C: 98 % of control
[11]
  T/C: 104 % of control
dose: 50.0 mg/kg/injection, schedule: Q04DX003 (ip), vehicle: saline
  T/C: 98 % of control
dose: 100.0 mg/kg/injection, schedule: Q04DX003 (ip), vehicle: saline
  T/C: 97 % of control

## O=C1NC(=O)C(c2cccc(N(CCCl)CCCl)c2)N1 (centres undefined)
[2]
  T/C: 101 % of control
[3]
  T/C: 101 % of control
[4]
  T/C: 104 % of control
[5]
  T/C: 101 % of control
[6]
  T/C: 104 % of control

## O=P(Cl)(Cl)NC12CC3CC(CC(C3)C1)C2
[4]
  T/C: 100 % of control [9 of 10 alive]
[5]
  T/C: 100 % of control
[6]
  survivor count: 4 of 10

## COP(OC)c1ccc(C)cc1
[6]
  T/C: 105 % of control
[7]
  T/C: 118 % of control
dose: 400.0 mg/kg/injection, schedule: Q01DX009 (ip), vehicle: Klucel (hydroxypropylcellulose) (HPC)
  T/C: 102 % of control [9 of 10 alive]

## CC1CCCCN1.C[CH2][Sn]([Br])([CH2]C)[CH2]C
dose: 0.75 mg/kg/injection, schedule: Q01DX009 (ip), vehicle: Klucel (hydroxypropylcellulose) (HPC)
  T/C: 109 % of control
dose: 1.5 mg/kg/injection, schedule: Q01DX009 (ip), vehicle: Klucel (hydroxypropylcellulose) (HPC)
  T/C: 103 % of control
dose: 3.0 mg/kg/injection, schedule: Q01DX009 (ip), vehicle: Klucel (hydroxypropylcellulose) (HPC)
  T/C: 113 % of control
dose: 6.0 mg/kg/injection, schedule: Q01DX009 (ip), vehicle: Klucel (hydroxypropylcellulose) (HPC)
  T/C: 107 % of control [9 of 10 alive]
dose: 12.0 mg/kg/injection, schedule: Q01DX009 (ip), vehicle: Klucel (hydroxypropylcellulose) (HPC)
  T/C: 105 % of control

## CC[C@@H](C)[C@@H]1NC(=O)/C(=C(\C)O)C1=O.c1ccc(CNCCNCc2ccccc2)cc1
[5]
  T/C: 107 % of control
[6]
  T/C: 107 % of control
[12]
  T/C: 95 % of control
[7]
  survivor count: 1 of 10
[13]
  survivor count: 2 of 6
[14]
  survivor count: 0 of 6

## OC(CNCCCl)C(O)C(O)C(O)CNCCCl (centres undefined)
dose: 2.5 mg/kg/injection, schedule: Q01DX009 (ip), vehicle: saline, evaluated on day 45
  T/C: 117 % of control
dose: 2.5 mg/kg/injection, schedule: Q01DX009 (ip), vehicle: saline, evaluated on day 60
  T/C: 100 % of control
dose: 5.0 mg/kg/injection, schedule: Q01DX009 (ip), vehicle: saline, evaluated on day 45
  T/C: 117 % of control
dose: 5.0 mg/kg/injection, schedule: Q01DX009 (ip), vehicle: saline, evaluated on day 60
  T/C: 113 % of control
dose: 10.0 mg/kg/injection, schedule: Q01DX009 (ip), vehicle: saline, evaluated on day 45
  T/C: 125 % of control
dose: 10.0 mg/kg/injection, schedule: Q01DX009 (ip), vehicle: saline, evaluated on day 60
  T/C: 150 % of control
[15]
  T/C: 137 % of control
  survivor count: 6 of 6
dose: 40.0 mg/kg/injection, schedule: Q01DX009 (ip), vehicle: saline
  survivor count: 6 of 6

## CCN(CCCl)CC1OC(OC)C2OC(C)(C)OC12 (centres undefined)
dose: 4.3 mg/kg/injection, schedule: Q01DX006 (ip), vehicle: saline
  T/C: 130 % of control
dose: 4.3 mg/kg/injection, schedule: Q01DX009 (ip), vehicle: saline
  T/C: 129 % of control
dose: 7.2 mg/kg/injection, schedule: Q01DX006 (ip), vehicle: saline
  T/C: 148 % of control
dose: 7.2 mg/kg/injection, schedule: Q01DX009 (ip), vehicle: saline
  T/C: 145 % of control
dose: 12.0 mg/kg/injection, schedule: Q01DX006 (ip), vehicle: saline
  T/C: 150 % of control
dose: 12.0 mg/kg/injection, schedule: Q01DX009 (ip), vehicle: saline
  T/C: 122 % of control
dose: 20.0 mg/kg/injection, schedule: Q01DX006 (ip), vehicle: saline
  T/C: 153 % of control
[15]
  survivor count: 10 of 10

## NC(=O)c1cn[nH]c1/N=N/N(CCCl)CCCl
[11]
  T/C: 110 % of control
[12]
  T/C: 121 % of control
[13]
  survivor count: 4 of 6
[14]
  survivor count: 0 of 6

## Cc1ccc(N(CCCl)CCCl)cc1C
[2]
  T/C: 119 % of control
[3]
  T/C: 136 % of control
[4]
  T/C: 140 % of control
[5]
  T/C: 167 % of control
[6]
  survivor count: 10 of 10
[7]
  survivor count: 8 of 10

## COc1ccc(N(CCCl)CCCl)cc1OC
[8]
  T/C: 110 % of control
[2]
  T/C: 118 % of control
[3]
  T/C: 136 % of control
[4]
  T/C: 162 % of control
[5]
  survivor count: 10 of 10
[6]
  survivor count: 10 of 10

## FC(Cl)C(F)(F)Sc1ccc(Cl)cc1 (centres undefined)
[5]
  T/C: 101 % of control
[6]
  T/C: 105 % of control [9 of 10 alive]
[7]
  T/C: 99 % of control [9 of 10 alive]

## CC(=O)N(CCCl)CCCl
dose: 6.25 mg/kg/injection, schedule: Q01DX009 (ip), vehicle: saline
  T/C: 102 % of control
[9]
  T/C: 100 % of control
[10]
  T/C: 94 % of control
[11]
  T/C: 100 % of control
[12]
  T/C: 117 % of control

## CC(Cl)CN(CC(C)Cl)C(=O)OCC(N)C(=O)O (centres undefined)
[9]
  T/C: 104 and 121 % of control
[10]
  T/C: 116 and 123 % of control
[11]
  T/C: 104 and 121 % of control
[12]
  T/C: 104 and 108 % of control
[13]
  T/C: 104 and 106 % of control
[14]
  T/C: 106 % of control

## CCCCOc1ccc(N(CCCl)CCCl)cc1
[8]
  T/C: 122 % of control
[2]
  T/C: 117 % of control
[3]
  T/C: 139 % of control
[4]
  T/C: 148 % of control
[5]
  T/C: 123 % of control
[6]
  survivor count: 10 of 10
